For 2 molecules, binding results are on record in publication PMC12751231.

In assay [1] the target is T1, CFAP57 (cilia and flagella associated protein 57), mouse (mouse (endogenous in testis)) (UniProt Q9D180).
T1 sequence: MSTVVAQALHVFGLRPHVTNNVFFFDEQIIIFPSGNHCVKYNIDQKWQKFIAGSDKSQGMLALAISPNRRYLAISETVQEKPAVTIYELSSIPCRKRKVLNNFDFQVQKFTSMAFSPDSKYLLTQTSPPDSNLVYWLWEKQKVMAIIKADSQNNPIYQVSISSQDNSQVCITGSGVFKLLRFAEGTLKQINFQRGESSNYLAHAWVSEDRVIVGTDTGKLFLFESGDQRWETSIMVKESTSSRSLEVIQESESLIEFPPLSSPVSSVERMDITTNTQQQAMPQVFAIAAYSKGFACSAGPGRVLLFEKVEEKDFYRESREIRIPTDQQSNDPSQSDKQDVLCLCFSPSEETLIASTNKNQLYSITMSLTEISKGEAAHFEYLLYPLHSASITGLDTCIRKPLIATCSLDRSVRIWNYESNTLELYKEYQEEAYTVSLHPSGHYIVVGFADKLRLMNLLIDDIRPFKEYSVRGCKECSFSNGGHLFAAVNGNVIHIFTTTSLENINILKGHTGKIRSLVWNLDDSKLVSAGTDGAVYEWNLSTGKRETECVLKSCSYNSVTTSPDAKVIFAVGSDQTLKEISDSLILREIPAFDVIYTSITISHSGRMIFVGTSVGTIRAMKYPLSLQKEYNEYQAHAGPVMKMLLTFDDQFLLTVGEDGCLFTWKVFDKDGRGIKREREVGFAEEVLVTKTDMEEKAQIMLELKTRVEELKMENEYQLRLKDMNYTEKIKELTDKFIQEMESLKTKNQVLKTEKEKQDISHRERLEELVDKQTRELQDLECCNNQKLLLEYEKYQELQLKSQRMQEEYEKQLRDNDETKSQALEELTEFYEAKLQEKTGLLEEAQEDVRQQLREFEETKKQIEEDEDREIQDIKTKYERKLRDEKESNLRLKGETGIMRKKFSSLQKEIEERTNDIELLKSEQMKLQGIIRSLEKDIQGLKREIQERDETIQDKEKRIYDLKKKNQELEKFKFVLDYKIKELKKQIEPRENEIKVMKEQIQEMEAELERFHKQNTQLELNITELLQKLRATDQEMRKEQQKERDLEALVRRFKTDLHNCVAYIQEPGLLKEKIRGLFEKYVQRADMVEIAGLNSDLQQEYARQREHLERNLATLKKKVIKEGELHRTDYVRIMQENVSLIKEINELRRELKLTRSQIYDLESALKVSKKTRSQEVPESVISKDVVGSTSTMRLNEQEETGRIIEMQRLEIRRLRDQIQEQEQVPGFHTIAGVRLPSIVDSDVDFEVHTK
Kind of assay: co-IP; WT mouse testis lysate; CFAP57, MYH10 or RAB1 antibody or rabbit IgG overnight at 4 °C, protein G agarose beads 4 h, five washes with lysis buffer; Western blotting with MYH10, RAB1 and CFAP57 antibodies. In general terms: Immunoblotting shows a protein as a band on a membrane.

Assay [2] addresses RAB1, mouse (mouse (endogenous in testis)). The description is as above.

Results are given in words; binding and its absence hold for the method and conditions named. In cells and extracts the contact can be indirect. Binding calls can cover weak binding; strength is not graded here. Tags and fused reporters may be left off the sequences shown.

As for RAB1, mouse, in assay [1], the binding entry is “binds”.

B1: CFAP57 (cilia and flagella associated protein 57), mouse (protein, UniProt Q9D180 1-1249)
chain: T1 sequence
Turning to B1, the binding result in assay [2] is reported as “binds”.
